This is an account of results in article PMC10761119, “Phosphorylation-state dependent intraneuronal sorting of Aβ differentially impairs autophagy and the endo-lysosomal system” (Autophagy, 2023).

The subject of this data set is APP-PSEN1dE9×THY1-YFP transgenic mouse cortex. Kind of data set: Immunohistochemistry colocalization (Mander's overlap coefficient) of Aβ species in transgenic mouse brain sections. The data set is classed as in vivo. As to conditions: IHC, N = 3 mice; for Mander's overlap coefficient, R, with THY1-YFP-positive neurons / Mander's overlap coefficient, R, with X-34 (plaque core): cortex of APP-PSEN1dE9×THY1-YFP mice; for Mander's overlap coefficient, R, with X-34 (plaque core): endogenous Aβ species detected with phosphorylation-state specific antibodies, ~100 cortical plaques; for Mander's overlap coefficient, R, with EEA1 (early endosomes) / Mander's overlap coefficient, R, with LAMP2 (lysosomes) / Mander's overlap coefficient, R, with LC3-positive vesicles: within THY1-YFP-positive neurons, APP-PSEN1dE9×THY1-YFP mouse cortex.

In the case of “amyloid-β phosphorylated at serine residue 8 [p-Ser8Aβ]”, the “Mander's overlap coefficient, R, with THY1-YFP-positive neurons” value came out at 0.35 ± 0.18; the “Mander's overlap coefficient, R, with X-34 (plaque core)” value turned out to be 0.67 ± 0.17; the “Mander's overlap coefficient, R, with EEA1 (early endosomes)” value was 0.27 ± 0.17; the “Mander's overlap coefficient, R, with LAMP2 (lysosomes)” value stood at 0.29 ± 0.16. For the same substance, the “Mander's overlap coefficient, R, with LC3-positive vesicles” value is 0.49 ± 0.20.
Turning to “amyloid-β phosphorylated at serine residue 26 [p-Ser26Aβ]”, the “Mander's overlap coefficient, R, with THY1-YFP-positive neurons” value was found to be 0.43 ± 0.24; the “Mander's overlap coefficient, R, with X-34 (plaque core)” value turned out to be 0.48 ± 0.18; the “Mander's overlap coefficient, R, with EEA1 (early endosomes)” value came to 0.15 ± 0.12; the “Mander's overlap coefficient, R, with LAMP2 (lysosomes)” value came to 0.46 ± 0.22. In addition, the “Mander's overlap coefficient, R, with LC3-positive vesicles” value is given as 0.37 ± 0.19.
Turning to non-modified amyloid-β [nmAβ], the “Mander's overlap coefficient, R, with THY1-YFP-positive neurons” value stood at 0.2 ± 0.11; the “Mander's overlap coefficient, R, with X-34 (plaque core)” value worked out at 0.61 ± 0.22; the “Mander's overlap coefficient, R, with EEA1 (early endosomes)” value is reported as 0.13 ± 0.10; the “Mander's overlap coefficient, R, with LAMP2 (lysosomes)” value was determined as 0.30 ± 0.13. For the same substance, the “Mander's overlap coefficient, R, with LC3-positive vesicles” value worked out at 0.29 ± 0.13.
